This is one part of the list. Most entries show no effect beyond the scatter of the controls.
Assays:
[1] = test system: ppGalNAc-T3 sensor; assay: T3 sensor activation Q score (MG/GFP ratio z-score vs DMSO controls) (SD units); higher = more sensor activation (inhibition of ppGalNAc-T3 glycosylation); conditions: HEK293 sensor cells; 10 µM; 6 h
Protocol: (§1)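 Cells were treated with compound at 10 uM for 6 h, then MG/GFP ratio was read by flow cytometry (10,000 cells per well, duplicate wells). Q = (R - R_neg)/SD_neg relative to DMSO vehicle controls; the signal rises when the glycosyltransferase is inhibited.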

[2] = test system: ppGalNAc-T2 sensor; assay: T2 sensor activation Q score (MG/GFP ratio z-score vs DMSO controls) (SD units); higher = more sensor activation (inhibition of ppGalNAc-T2 glycosylation); conditions: HEK293 sensor cells; 10 µM; 6 h
Protocol: as §1

| Structure (SMILES) | T3 sensor activation Q score [1] | T2 sensor activation Q score [2] |
| --- | --- | --- |
| O=[N+]([O-])c1cc2c(cc1CN1CCCCCC1)OCO2 | 0.15 | 0.29 |
| Cc1ccc(S(=O)(=O)NCc2ccccc2)cc1C | -0.455 | 1.05 |
| Fc1ccc(CN2CCc3ccccc3C2)cc1Br | -0.155 | -0.435 |
| Clc1ccc(CSc2nccn2Cc2ccccc2)cc1 | 0.23 | 0.08 |
| COc1cccc(NC2=C(N3CCCC3)C(=O)c3ccccc3C2=O)c1 | -0.135 | -0.835 |
| Cc1ccccc1CN(C)CCN(C)C | -0.435 | 0.19 |
| COc1ccc(OC)c(C(=O)c2ccc(C(=O)O)cc2)c1 | -0.44 | -0.475 |
| O=C(Nc1nn[nH]n1)C1c2ccccc2Oc2ccccc21 | -0.18 | 1.14 |
| CCC(C)Sc1nc(O)c(Cc2ccccc2)c(=O)[nH]1 (stereo unspecified) | 0.07 | -0.855 |
| O=C(Nc1ccccc1)Oc1c(Cl)cc(Cl)cc1Br | 0 | 0.795 |
| COc1cc2c(cc1OC)CN(Cc1ccc(NC(C)=O)cc1)CC2 | 0.235 | 0.04 |
| O=C(c1ccc(F)cc1)N1CCOCC1 | -0.015 | 0.66 |
| CCCOc1ccc(C(=O)N2CCOCC2)cc1OC | 0.185 | 0.595 |
| CN(C)CCN(C)Cc1cccc(F)c1 | -0.3 | 0.615 |
| CC(Oc1cccc(Cl)c1)C(=O)NN (stereo unspecified) | 2.25 | 0.21 |
| COc1ccc(CN2CCCCCC2)cc1 | 0.415 | 0.525 |
| Cc1ccc(SC2CC(=O)N(c3ccccc3)C2=O)cc1 (stereo unspecified) | 0.385 | -0.87 |
| Cc1c(NC(=O)c2cccc([N+](=O)[O-])c2)c(=O)n(-c2ccccc2)n1C | -0.4 | -0.55 |
| CC(C)NC(=O)Nc1cccc(Cl)c1 | 0.06 | -0.69 |
| Cc1cccc(C)c1NC(=O)NC1CCCCC1 | 0.455 | 0.37 |

| Structure (SMILES) | T3 sensor activation Q score [1] | T2 sensor activation Q score [2] |
| --- | --- | --- |
| Cc1ccc(C(=O)/C=C/c2cccc(F)c2)o1 | 0.6 | 1.75 |
| COc1ccc(-c2nnc(N)o2)cc1 | 0.4 | -1.19 |
| Cc1c(Cl)cccc1NC(=O)Cc1ccccc1 | -0.715 | -0.005 |
| CC(C)Cc1ccc(-c2csc(N)n2)cc1 | -0.195 | 0.135 |
| CN(C)c1cnn(-c2ccccc2)c(=O)c1Cl | 0.645 | 0.065 |
| O=C(Nc1ccccc1)Nc1ccccc1Br | 0.5 | 1.66 |
| CC(=O)C1=C(O)C(=O)N(CCO)C1c1ccc(Br)cc1 (stereo unspecified) | -0.155 | -0.225 |
| Nc1nnc(COc2ccccc2)s1 | 1.25 | 1.65 |
| O=C1CC(N2CCCc3ccccc32)C(=O)N1c1ccccc1 (stereo unspecified) | -0.825 | -0.785 |
| CCCN(CCO)Cc1ccccc1 | -0.465 | 0.525 |
| CC1Cc2c([nH]c3ccccc23)C(=O)N1 (stereo unspecified) | 1.07 | -0.97 |
| CCOc1cccc(N2C(=O)CC(N3CCC(C(N)=O)CC3)C2=O)c1 (stereo unspecified) | 0.485 | 0.32 |
| COc1cccc(CN2CCN(c3cccc(C)c3C)CC2)c1OC | 0.37 | 0.04 |
| c1ccc(CNn2cnnc2)cc1 | 1.1 | -0.08 |
| COc1ccccc1CN1CCCCCC1 | 0.415 | -0.05 |
| O=[N+]([O-])c1cccc(-c2ccccc2)c1 | -0.71 | 0.14 |
| Cc1cccc(NS(=O)(=O)c2ccc(Cl)cc2)n1 | -0.345 | -0.91 |
| Nc1cc(C(=O)O)ccc1Nc1ccccc1 | 1.3 | -0.205 |
| Cc1ccc(OCC(O)CN)cc1 (stereo unspecified) | -0.1 | -0.215 |
| CC1CCC(NCCN2CCOCC2)CC1 (stereo unspecified) | -0.825 | -0.01 |

| Structure (SMILES) | T3 sensor activation Q score [1] | T2 sensor activation Q score [2] |
| --- | --- | --- |
| c1ccc2c3c([nH]c2c1)CN(Cc1ccc2c(c1)OCO2)CC3 | 0.27 | 0.505 |
| CN1CCN(C(=O)c2cccc(Cl)c2)CC1 | -0.04 | -0.965 |
| COc1cc2c(cc1OC)CN(Cc1ccccc1Cl)CC2 | 0.1 | 0.26 |
| CN1CCN(C(=O)c2ccc(S(=O)(=O)N3CCOCC3)cc2)CC1 | 0.31 | -0.1 |
| O=[N+]([O-])c1ccc(CN2CCN(c3ccccc3Cl)CC2)o1 | -0.255 | 0.895 |
| CCN(CC)CCNC(=O)c1sc2ccccc2c1Cl | -0.635 | -0.07 |
| Cc1cc(C)cc(NS(=O)(=O)c2ccc(F)cc2)c1 | 0.635 | -0.825 |
| CCNCC(=O)N1c2ccccc2CCc2ccc(NC(C)=O)cc21 | -0.16 | 1.61 |
| Nc1ccn(-c2ccccc2)n1 | 1.09 | 0.905 |
| C(=C\c1ccccc1)/CN1CCN(C2C3CC4CC(C3)CC2C4)CC1 (stereo unspecified) | 0.38 | -0.1 |
| COc1ccccc1CNC(=O)c1ccccc1OC | 0.53 | 0.4 |
| CCOc1ccc2nc3cc(N)ccc3c(N)c2c1 | 0.84 | 2.27 |
| Nc1nc2nc(-c3ccccc3)cc(-c3ccccc3)n2n1 | 2.15 | -0.15 |
| O=C(Nc1ccncc1)c1ccccc1F | -0.565 | 0.32 |
| CN1CCCN(Cc2cccc(Oc3ccccc3)c2)CC1 | -0.11 | 1.01 |
| Cc1ccccc1OCC(=O)Nc1cc(Cl)ccc1Cl | 0.375 | -0.065 |
| CC(=O)Nc1ccc(C2(c3ccc(NC(C)=O)cc3)NC(=O)c3ccccc32)cc1 | -0.485 | -0.255 |
| COc1ccc(C2NC(=O)N(C)C(C)=C2[N+](=O)[O-])cc1 (stereo unspecified) | 0.23 | -0.25 |

Reference: the supplement of paper PMC5407854, “Inhibitor of ppGalNAc-T3-mediated O-glycosylation blocks cancer cell invasiveness and lowers FGF23 levels” (eLife, 2017)
